Consider one compound from US4361553A, “Therapeutic uses of dynorphin” (Regents of the University of California, priority 1981, dated 1982).

For the experiment, the system named is naive mice. Put plainly: Tail-flick analgesia, morphine s.c. with or without dynorphin-(1-13) i.c.v., naive group (Example III). Particulars: Mus musculus, sc. It is filed as in vivo. As to the method: Male simonesen ICR mice (Gilroy, CA) weighing between 20-25 g were housed for at least one day prior to experimentation, and used within 5 days. Each mouse was used only once.
Analgesia was measured by the tail-flick method of D'Amour and Smith, J.Pharmac.Exp.Ther., 72, pp. 74-79 (1941), incorporated herein by reference, as modified by Tulunay and Takemori, J.Pharmac.Exp.Ther., 190, pp. 395-400 (1974), incorporated herein by reference. […] Nonresponding animals were removed from the heat stimulus when reaction times exceeded 10 sec. to avoid the tail damage.
Drugs were injected 30 min prior to testing, unless otherwise indicated.
The animals were separated into two groups.
The ED50 values, their 95% confidence limits and significance of the potency ratio between two ED50 values were determined by the method of Litchfield and Wilcoxon, J.Pharmacol.Exp.Ther, 96:99-113 (1949), incorporated herein by reference.

Read-outs that look alike come from different tables or passages of the source.

For orientation: ED50 means the dose that gives a 50% effect, or the effect in half of the subjects.

On to `CN1CC[C@]23c4c5ccc(O)c4O[C@H]2[C@@H](O)C=C[C@H]3[C@H]1C5.O=S(=O)(O)O` [Morphine, morphine sulfate], for which the ED50 reads like this: (read-out: ED50 of morphine, morphine s.c. alone, naive mice) approximately 4.9 mg/kg; (read-out: ED50 of morphine, morphine s.c. in the presence of 10 g dynorphin-(1-13) (unit as printed), naive mice) approximately 8.4 mg/kg; (read-out: ED50 of morphine, morphine s.c. in the presence of 20 g dynorphin-(1-13) (unit as printed), naive mice) approximately 14.5 mg/kg.
